From the supplement of paper PMC8728848
The list shows a part of the results.

Assays:
Test in all cases: glycan array binding signal (z-score within array); higher = stronger binding
Conditions in all cases: glycan notation: IUPAC condensed, linker removed
[1] = target: Kdn(a2-3)Gal(b1-4)GlcNAc
Outline: (§1)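 From the Consortium for Functional Glycomics database, 3228 arrays were curated, keeping only those whose protein sequence was available. Binding is given as a within-array Z-score averaged across arrays sharing a protein sequence and across linkers. Negative Z-scores can be read as non-binding.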

[2] = target: Kdn(a2-3)Gal(b1-4)[Fuc(a1-3)]GlcNAc
Outline: as §1

[3] = target: Kdn(a2-6)Gal(b1-4)GlcNAc
Outline: as §1

[4] = target: Man(a1-2)Man(a1-2)Man(a1-3)Man
Outline: as §1

[5] = target: Man(a1-2)Man(a1-2)Man(a1-6)[Man(a1-3)]Man
Outline: as §1

[6] = target: Man(a1-2)Man(a1-3)Man
Outline: as §1

[7] = target: Man(a1-2)Man(a1-3)[Man(a1-2)Man(a1-6)]Man
Outline: as §1

[8] = target: Man(a1-2)Man(a1-3)[Man(a1-2)Man(a1-6)]Man(a1-6)[Man(a1-2)Man(a1-2)Man(a1-3)]Man
Outline: as §1

[9] = target: Man(a1-2)Man(a1-3)[Man(a1-2)Man(a1-6)]Man(a1-6)[Man(a1-2)Man(a1-2)Man(a1-3)]Man(b1-4)GlcNAc(b1-4)GlcNAc
Outline: as §1

[10] = target: Man(a1-2)Man(a1-3)[Man(a1-6)]Man(a1-6)[Man(a1-2)Man(a1-3)]Man(b1-4)GlcNAc(b1-4)GlcNAc
Outline: as §1

[11] = target: Man(a1-2)Man(a1-6)[Man(a1-3)]Man(a1-6)[Man(a1-2)Man(a1-2)Man(a1-3)]Man
Outline: as §1

[12] = target: Man(a1-2)Man(a1-6)[Man(a1-3)]Man(a1-6)[Man(a1-2)Man(a1-2)Man(a1-3)]Man(b1-4)GlcNAc(b1-4)GlcNAc
Outline: as §1

[13] = target: Man(a1-3)[Man(a1-6)]Man
Outline: as §1

[14] = target: Man(a1-3)[Man(a1-6)]Man(a1-6)[Man(a1-2)Man(a1-3)]Man(b1-4)GlcNAc(b1-4)GlcNAc
Outline: as §1

[15] = target: Man(a1-3)[Man(a1-6)]Man(a1-6)[Man(a1-3)]Man
Outline: as §1

[16] = target: Man(a1-3)[Man(a1-6)]Man(a1-6)[Man(a1-3)]Man(b1-4)GlcNAc(b1-4)GlcNAc
Outline: as §1

[17] = target: Man(a1-3)[Man(a1-6)]Man(b1-4)GlcNAc(b1-4)GlcNAc
Outline: as §1

[18] = target: Man(a1-3)[Man(a1-6)]Man(b1-4)GlcNAc(b1-4)[Fuc(a1-6)]GlcNAc
Outline: as §1

[19] = target: Man(a1-6)Man
Outline: as §1

[20] = target: Man(b1-4)GlcNAc
Outline: as §1

[21] = target: MurNAc(b1-4)GlcNAc
Outline: as §1

[22] = target: Neu5Ac(a2-3)Gal
Outline: as §1

[23] = target: Neu5Ac(a2-3)Gal(b1-3)GalNAc
Outline: as §1

[24] = target: Neu5Ac(a2-3)Gal(b1-3)GalNAc(b1-3)Gal(a1-4)Gal(b1-4)Glc
Outline: as §1

[25] = target: Neu5Ac(a2-3)Gal(b1-3)GalNAc(b1-3)Gal(b1-4)GlcNAc
Outline: as §1

[26] = target: Neu5Ac(a2-3)Gal(b1-3)GalNAc(b1-4)Gal(b1-4)Glc
Outline: as §1

[27] = target: Neu5Ac(a2-3)Gal(b1-3)GalNAc(b1-4)[Neu5Ac(a2-3)]Gal(b1-4)Glc
Outline: as §1

[28] = target: Neu5Ac(a2-3)Gal(b1-3)GalNAc(b1-4)[Neu5Ac(a2-8)Neu5Ac(a2-3)]Gal(b1-4)Glc
Outline: as §1

[29] = target: Neu5Ac(a2-3)Gal(b1-3)GalNAc6S
Outline: as §1

[30] = target: Neu5Ac(a2-3)Gal(b1-3)GlcNAc
Outline: as §1

[31] = target: Neu5Ac(a2-3)Gal(b1-3)GlcNAc(b1-2)Man
Outline: as §1

[32] = target: Neu5Ac(a2-3)Gal(b1-3)GlcNAc(b1-2)Man(a1-3)[GlcNAc(b1-4)][Neu5Ac(a2-3)Gal(b1-3)GlcNAc(b1-2)Man(a1-6)]Man(b1-4)GlcNAc(b1-4)GlcNAc
Outline: as §1

[33] = target: Neu5Ac(a2-3)Gal(b1-3)GlcNAc(b1-2)Man(a1-3)[Neu5Ac(a2-3)Gal(b1-3)GlcNAc(b1-2)Man(a1-6)]Man(b1-4)GlcNAc(b1-4)GlcNAc
Outline: as §1

[34] = target: Neu5Ac(a2-3)Gal(b1-3)GlcNAc(b1-2)[Neu5Ac(a2-3)Gal(b1-3)GlcNAc(b1-4)]Man(a1-6)[Neu5Ac(a2-3)Gal(b1-3)GlcNAc(b1-2)Man(a1-3)]Man(b1-4)GlcNAc(b1-4)GlcNAc
Outline: as §1

[35] = target: Neu5Ac(a2-3)Gal(b1-3)GlcNAc(b1-3)Gal(b1-3)GlcNAc
Outline: as §1

[36] = target: Neu5Ac(a2-3)Gal(b1-3)GlcNAc(b1-3)Gal(b1-4)GlcNAc
Outline: as §1

[37] = target: Neu5Ac(a2-3)Gal(b1-3)GlcNAc(b1-3)GalNAc
Outline: as §1

[38] = target: Neu5Ac(a2-3)Gal(b1-3)GlcNAc(b1-6)GalNAc
Outline: as §1

[39] = target: Neu5Ac(a2-3)Gal(b1-3)GlcNAc6S
Outline: as §1

[40] = target: Neu5Ac(a2-3)Gal(b1-3)[Fuc(a1-4)]GlcNAc
Outline: as §1

[41] = target: Neu5Ac(a2-3)Gal(b1-3)[Fuc(a1-4)]GlcNAc(b1-3)Gal(b1-3)[Fuc(a1-4)]GlcNAc
Outline: as §1

[42] = target: Neu5Ac(a2-3)Gal(b1-3)[Fuc(a1-4)]GlcNAc(b1-3)Gal(b1-4)[Fuc(a1-3)]GlcNAc
Outline: as §1

[43] = target: Neu5Ac(a2-3)Gal(b1-3)[GlcNAc(b1-6)]GalNAc
Outline: as §1

[44] = target: Neu5Ac(a2-3)Gal(b1-3)[Neu5Ac(a2-3)Gal(b1-4)]GlcNAc
Outline: as §1

[45] = target: Neu5Ac(a2-3)Gal(b1-3)[Neu5Ac(a2-6)]GalNAc
Outline: as §1

B1: GST Gap3 (Streptococcus parasanguinis) (protein)
chain: MTKQLISEIYWNEIRKGENYLYGSQIKFQEDLVNFYNPQLASGKPIVTFKSRTNYQGDRHSPDLPILIQGNRYLLEYQIDAVPANSFFLQLDFFNRQAEQIESIVLRNSGESFIFPKDTFTYTLTLMSAGCQSVTYQKFMIYDINDEEKKNHIVENRYLRELLPKDLDLVKNLIEYI
glycan array binding signal (z-score) [1]: -0.034 | glycan array binding signal (z-score) [2]: 0.164 | glycan array binding signal (z-score) [3]: -0.471 | glycan array binding signal (z-score) [4]: -0.495 | glycan array binding signal (z-score) [5]: -0.226 | glycan array binding signal (z-score) [6]: -0.273 | glycan array binding signal (z-score) [7]: -0.379 | glycan array binding signal (z-score) [8]: -0.19 | glycan array binding signal (z-score) [9]: -0.231 | glycan array binding signal (z-score) [10]: -0.304 | glycan array binding signal (z-score) [11]: -0.335 | glycan array binding signal (z-score) [12]: -0.359 | glycan array binding signal (z-score) [13]: -0.311 | glycan array binding signal (z-score) [14]: -0.369 | glycan array binding signal (z-score) [15]: -0.516 | glycan array binding signal (z-score) [16]: -0.294 | glycan array binding signal (z-score) [17]: -0.303 | glycan array binding signal (z-score) [18]: -0.194 | glycan array binding signal (z-score) [19]: -0.41 | glycan array binding signal (z-score) [20]: -0.526 | glycan array binding signal (z-score) [21]: -0.582 | glycan array binding signal (z-score) [22]: -0.372 | glycan array binding signal (z-score) [23]: -0.228 | glycan array binding signal (z-score) [24]: -0.174 | glycan array binding signal (z-score) [25]: -0.123 | glycan array binding signal (z-score) [26]: 0.335 | glycan array binding signal (z-score) [27]: -0.475 | glycan array binding signal (z-score) [28]: 0.451 | glycan array binding signal (z-score) [29]: -0.474 | glycan array binding signal (z-score) [30]: -0.21 | glycan array binding signal (z-score) [31]: -0.331 | glycan array binding signal (z-score) [32]: 0.249 | glycan array binding signal (z-score) [33]: -0.211 | glycan array binding signal (z-score) [34]: 0.017 | glycan array binding signal (z-score) [35]: -0.309 | glycan array binding signal (z-score) [36]: -0.442 | glycan array binding signal (z-score) [37]: -0.515 | glycan array binding signal (z-score) [38]: -0.69 | glycan array binding signal (z-score) [39]: -0.535 | glycan array binding signal (z-score) [40]: -0.582 | glycan array binding signal (z-score) [41]: -0.044 | glycan array binding signal (z-score) [42]: -0.335 | glycan array binding signal (z-score) [43]: -0.638 | glycan array binding signal (z-score) [44]: -0.254 | glycan array binding signal (z-score) [45]: -0.342
